Assay results as given in article PMC9177963.

The chains behind the UniProt entries cited, without tags or fusion partners.
UniProt Q02248: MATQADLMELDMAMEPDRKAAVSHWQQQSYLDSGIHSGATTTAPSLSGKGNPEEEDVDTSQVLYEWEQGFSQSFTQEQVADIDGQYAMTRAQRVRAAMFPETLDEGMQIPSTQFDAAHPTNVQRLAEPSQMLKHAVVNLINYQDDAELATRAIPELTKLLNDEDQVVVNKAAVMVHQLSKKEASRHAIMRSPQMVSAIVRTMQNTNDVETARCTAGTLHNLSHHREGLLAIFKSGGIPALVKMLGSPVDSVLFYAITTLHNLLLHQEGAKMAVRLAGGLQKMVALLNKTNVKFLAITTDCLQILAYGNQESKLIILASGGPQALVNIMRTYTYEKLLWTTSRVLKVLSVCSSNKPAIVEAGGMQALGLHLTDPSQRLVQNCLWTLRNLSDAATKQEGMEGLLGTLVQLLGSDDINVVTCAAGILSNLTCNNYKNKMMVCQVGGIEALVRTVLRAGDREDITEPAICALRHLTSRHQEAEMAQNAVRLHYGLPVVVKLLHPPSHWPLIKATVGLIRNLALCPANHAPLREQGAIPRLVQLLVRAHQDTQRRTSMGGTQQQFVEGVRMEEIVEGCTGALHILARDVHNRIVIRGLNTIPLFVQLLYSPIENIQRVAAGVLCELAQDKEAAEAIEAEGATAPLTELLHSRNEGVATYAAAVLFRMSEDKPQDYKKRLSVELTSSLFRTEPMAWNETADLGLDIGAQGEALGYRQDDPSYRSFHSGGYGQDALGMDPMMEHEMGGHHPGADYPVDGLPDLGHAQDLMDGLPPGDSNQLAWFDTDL

Target: T1, USP26 (ubiquitin-specific protease 26) (mouse (endogenous in mouse MSCs and BMMs)) (UniProt Q99MX1)
T1 sequence: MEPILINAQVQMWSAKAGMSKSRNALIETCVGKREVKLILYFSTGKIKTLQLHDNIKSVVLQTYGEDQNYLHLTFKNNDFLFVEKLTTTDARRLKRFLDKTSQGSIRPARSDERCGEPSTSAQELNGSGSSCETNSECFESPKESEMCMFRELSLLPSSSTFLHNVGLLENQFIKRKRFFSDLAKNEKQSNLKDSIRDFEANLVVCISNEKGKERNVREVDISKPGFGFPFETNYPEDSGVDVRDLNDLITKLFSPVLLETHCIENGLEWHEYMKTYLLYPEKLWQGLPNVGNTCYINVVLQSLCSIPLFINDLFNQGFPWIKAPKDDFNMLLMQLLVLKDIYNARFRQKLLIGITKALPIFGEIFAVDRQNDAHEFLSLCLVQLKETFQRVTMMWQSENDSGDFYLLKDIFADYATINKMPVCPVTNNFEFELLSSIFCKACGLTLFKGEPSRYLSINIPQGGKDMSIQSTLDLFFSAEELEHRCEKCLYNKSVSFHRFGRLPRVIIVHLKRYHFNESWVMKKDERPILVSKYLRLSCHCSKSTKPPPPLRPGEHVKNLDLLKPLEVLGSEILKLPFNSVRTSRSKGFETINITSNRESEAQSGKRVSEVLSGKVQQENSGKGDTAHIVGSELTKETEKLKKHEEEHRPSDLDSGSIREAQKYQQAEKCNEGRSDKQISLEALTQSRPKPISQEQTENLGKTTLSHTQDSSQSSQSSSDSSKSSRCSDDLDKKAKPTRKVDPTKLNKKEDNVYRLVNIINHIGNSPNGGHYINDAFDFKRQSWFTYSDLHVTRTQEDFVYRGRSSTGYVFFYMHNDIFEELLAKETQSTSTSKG
Test: affinity purification with mass spectrometry; supernatant of mouse MSC lysates incubated with anti-USP26 antibody overnight at 4 °C, protein A + G beads; eluate on SDS-PAGE, silver stained, gel bands analysed by LC-MS/MS

binding: binds
Substance: β-catenin (from UniProt Q02248 1-781)

These are yes or no findings as the source states them, for the method shown. Binding seen in cells or lysates may run through a third protein. Here binding means that the protein was enriched with, or labelled near, the bait; the list need not be complete.
